# Laboratory results published in the supplement of paper PMC3682954.
# “And” between values parts separate entries of the source, which are not always exact repeats. Identical values can stand only once. Counter-ions that a name gives are not always drawn. ± gives the standard deviation of the averaged measurements. Some of the results follow. Single values are uncertain, as repeats are few or missing.
# Tested on: RAW 264.7
# Test: HMGB1-induced TNF-alpha production relative to HMGB1-stimulated control; higher = more TNF-alpha secretion (less inhibition)
# Settings: stimulus: HMGB1 5 ug/ml, 18 h
# [1] = compound concentration: 1 ug/ml
Structure (SMILES),HMGB1-induced TNF-alpha production (compound concentration: 3 uM),HMGB1-induced TNF-alpha production [1] [%]
CCC(=O)O[C@@H](O[P@](=O)(CCCCc1ccccc1)CC(=O)N1C[C@H](C2CCCCC2)C[C@H]1C(=O)O)C(C)C [Fosinopril],107 ± 14%,–
COc1cccc2c1C(=O)c1c(O)c3c(c(O)c1C2=O)C[C@@](O)(C(=O)CO)C[C@@H]3O[C@H]1C[C@H](N)[C@H](O)[C@H](C)O1 [Doxorubicin hydrochloride],31.8%,–
COc1cccc2c1C(=O)c1c(O)c3c(c(O)c1C2=O)C[C@@](O)(C(=O)CO)C[C@@H]3O[C@H]1C[C@H](N)[C@H](O)[C@H](C)O1,45% and 50.4%,–
COc1cccc2c1C(=O)c1c(O)c3c(c(O)c1C2=O)C[C@@](O)(C(=O)CO)C[C@@H]3O[C@H]1C[C@H](N)[C@H](O)[C@H](C)O1 [Doxorubicin HCl],36.5%,–
Cn1cnc2c(NCc3ccccc3)nc(NCCO)nc21 [Olomoucine],110%,–
CC1(C)S[C@@H]2[C@H](NC(=O)[C@H](N)c3ccc(O)cc3)C(=O)N2[C@H]1C(=O)O [Amoxicillin],66.3%,–
CC1(C)S[C@@H]2[C@H](NC(=O)[C@H](N)c3ccc(O)cc3)C(=O)N2[C@H]1C(=O)O,87%,–
COc1cccc2c1[C@@H]1CN(CCCCn3c(=O)[nH]c4c(sc5ncc(-c6ccccc6)nc54)c3=O)C[C@@H]1CO2 [Fiduxosin hydrochloride],80.3%,–
CN[C@@H]1[C@H](O[C@H]2[C@H](O[C@H]3[C@H](O)[C@@H](O)[C@H](N=C(N)N)[C@@H](O)[C@@H]3N=C(N)N)O[C@@H](C)[C@]2(O)C=O)O[C@@H](CO)[C@H](O)[C@H]1O [Streptomycin],109%,–
CN[C@@H]1[C@H](O[C@H]2[C@H](O[C@H]3[C@H](O)[C@@H](O)[C@H](N=C(N)N)[C@@H](O)[C@@H]3N=C(N)N)O[C@@H](C)[C@]2(O)C=O)O[C@@H](CO)[C@H](O)[C@H]1O [Streptomycin sulfate],80.4%,–
CN[C@@H]1[C@H](O[C@H]2[C@H](O[C@H]3[C@H](O)[C@@H](O)[C@H](N=C(N)N)[C@@H](O)[C@@H]3N=C(N)N)O[C@@H](C)[C@]2(O)C=O)O[C@@H](CO)[C@H](O)[C@H]1O,83.9%,–
Cc1cccc(C(=O)O)c1O,77.5%,–
Nc1nc(Cl)nc2c1ncn2[C@H]1C[C@H](O)[C@@H](CO)O1 [Cladribine],130%,–
Nc1nc(Cl)nc2c1ncn2[C@H]1C[C@H](O)[C@@H](CO)O1,110%,–
N[C@@H](Cc1cc(I)c(Oc2cc(I)c(O)c(I)c2)c(I)c1)C(=O)O [L-Thyroxine sodium salt hydrate],–,73.2
N[C@@H](Cc1cc(I)c(Oc2cc(I)c(O)c(I)c2)c(I)c1)C(=O)O [L-thyroxine],94.8%,–
N=C(N)NC(=O)Cc1c(Cl)cccc1Cl [Guanfacine hydrochloride],69.5 ± 14%,–
N=C(N)NC(=O)Cc1c(Cl)cccc1Cl [Guanfacine],124%,–
N=C(N)NC(=O)Cc1c(Cl)cccc1Cl,93.4%,–
CN1C[C@H](O)[C@@H](O)[C@H](O)[C@H]1CO [N-Methyl-1-deoxynojirimycin],83.5%,–
O=c1cnn([C@@H]2O[C@H](CO)[C@@H](O)[C@H]2O)c(=O)[nH]1,78%,–
O=c1cnn([C@@H]2O[C@H](CO)[C@@H](O)[C@H]2O)c(=O)[nH]1 [6-Azauridine],–,72.5
C=C1C[C@@]23CC[C@H]4[C@@](C)(CCC[C@@]4(C)C(=O)O)[C@@H]2CC[C@]1(O)C3 [Steviol],113%,–
CN1C(=O)CC(c2ccccc2)C1=O (configuration not stated) [Phensuximide],94.5%,–

Structure (SMILES),HMGB1-induced TNF-alpha production (compound concentration: 3 uM),HMGB1-induced TNF-alpha production [1] [%]
COc1ccccc1N1CCN(CCN(C(=O)C2CCCCC2)c2ccccn2)CC1,104%,–
Nc1ccn([C@@H]2O[C@H](CO)[C@@H](O)C2(F)F)c(=O)n1 [Gemcitabine],117 ± 16%,–
CC1CNc2c(cccc2S(=O)(=O)N[C@@H](CCCNC(=N)N)C(=O)N2CC[C@@H](C)C[C@@H]2C(=O)O)C1 (some centres not stated) [Argatroban],106 ± 14%,–
CC1CNc2c(cccc2S(=O)(=O)N[C@@H](CCCNC(=N)N)C(=O)N2CC[C@@H](C)C[C@@H]2C(=O)O)C1 (some centres not stated),95.2%,–
CN(C)CCN(Cc1ccccc1)c1ccccn1,95.1% and 112%,–
CN(C)CCN(Cc1ccccc1)c1ccccn1 [Tripelennamine hydrochloride],106%,–
C=CC1=C(C)c2cc3[nH]c(cc4nc(cc5[nH]c(cc1n2)c(C)c5CCC(=O)O)C(CCC(=O)O)=C4C)c(C)c3C=C,79.9%,–
C=CC1=C(C)c2cc3[nH]c(cc4nc(cc5[nH]c(cc1n2)c(C)c5CCC(=O)O)C(CCC(=O)O)=C4C)c(C)c3C=C [Protoporphyrin IX disodium],38.5%,–
N[C@H](CO)Cc1cnc[nH]1 [L(-)-Histidinol dihydrochloride],–,65.1
CC(=O)O[C@@]12CO[C@@H]1C[C@H](O)[C@@]1(C)C(=O)[C@H](O)C3=C(C)[C@@H](OC(=O)[C@H](O)[C@@H](NC(=O)OC(C)(C)C)c4ccccc4)C[C@@](O)([C@@H](OC(=O)c4ccccc4)[C@H]21)C3(C)C,104%,–
CC(=O)O[C@@]12CO[C@@H]1C[C@H](O)[C@@]1(C)C(=O)[C@H](O)C3=C(C)[C@@H](OC(=O)[C@H](O)[C@@H](NC(=O)OC(C)(C)C)c4ccccc4)C[C@@](O)([C@@H](OC(=O)c4ccccc4)[C@H]21)C3(C)C [Docetaxel],101 ± 9.9%,–
OC[C@H]1O[C@@H](Oc2ccc3cc(Br)ccc3c2)[C@H](O)[C@@H](O)[C@H]1O [6-Bromo-2-naphthyl-beta-D-galactopyranoside],–,78.5
"O=C(OC[C@H]1O[C@@H](n2ccc(=O)[nH]c2=O)[C@H](OC(=O)c2ccccc2)[C@@H]1OC(=O)c1ccccc1)c1ccccc1 [2',3',5'-Tri-O-benzoyluridine]",–,62.8
Nc1ncnc2c1[nH]c(=S)n2C1OC(CO)C(O)C1O (configuration not stated),–,86.6
"Cc1cccc(-c2cc(=O)c3cc(C)ccc3o2)c1 [3',6-Dimethylflavone]",–,67.1
Nc1ncnc2c1ncn2[C@@H]1O[C@H](CO)[C@@H](O)[C@H]1O [Adenosine],92.7%,–
Nc1ncnc2c1ncn2[C@@H]1O[C@H](CO)[C@@H](O)[C@H]1O,92.2%,–
Clc1ccc(CSC(Cn2ccnc2)c2ccc(Cl)cc2Cl)cc1 (configuration not stated) [Sulconazole nitrate],106%,–
Clc1ccc(CSC(Cn2ccnc2)c2ccc(Cl)cc2Cl)cc1 (configuration not stated),62.5%,–
C[n+]1cc2c3c(ccc2c2ccc4cc5c(cc4c21)OCO5)OCO3,40.2 ± 42%,–
C[n+]1cc2c3c(ccc2c2ccc4cc5c(cc4c21)OCO5)OCO3 [Sanguinarine chloride],20.6%,–
C[C@]12CC[C@@H]3c4ccc(O)cc4CC[C@H]3[C@@H]1CC[C@@H]2O [beta-Estradiol],77.1%,–
C[C@]12CC[C@@H]3c4ccc(O)cc4CC[C@H]3[C@@H]1CC[C@@H]2O [Estradiol],87.3%,–
C[C@]12CC[C@@H]3c4ccc(O)cc4CC[C@H]3[C@@H]1CC[C@@H]2O [Estradiol-17 beta],62.6%,–

Structure (SMILES),HMGB1-induced TNF-alpha production (compound concentration: 3 uM),HMGB1-induced TNF-alpha production [1] [%]
CCCN(CCC)S(=O)(=O)c1ccc(C(=O)O)cc1,92.5%,–
CCCN(CCC)S(=O)(=O)c1ccc(C(=O)O)cc1 [Probenecid],66.2%,–
O=c1[nH]c(=S)[nH]c(-c2ccccc2)c1Cc1c(O)ccc2ccccc12 [Cambinol],73.5%,–
CCSc1ncnc2nc[nH]c12 [6-ethylmercaptopurine],–,74.5
COc1ccc2[nH]c([S+]([O-])Cc3ncc(C)c(OC)c3C)nc2n1 (configuration not stated) [Tenatoprazole],99.9 ± 5.4%,–
CN(C)CCOC(c1ccccc1)c1ccccc1 [Diphenhydramine],102%,–
CN(C)CCOC(c1ccccc1)c1ccccc1 [Diphenhydramine hydrochloride],74.7 ± 17%,–
CN(C)CCOC(c1ccccc1)c1ccccc1,93.1 ± 26%,–
CC(=O)[C@H]1CC[C@H]2[C@@H]3CCC4=CC(=O)CC[C@]4(C)[C@H]3CC[C@]12C [Progesterone],82 ± 16%,63.9
CC(=O)[C@H]1CC[C@H]2[C@@H]3CCC4=CC(=O)CC[C@]4(C)[C@H]3CC[C@]12C,94.58 ± 0.94%,–
OC(CN1CCC(Cc2ccc(F)cc2)CC1)c1ccc(Cl)cc1 (configuration not stated) [Eliprodil],87.7%,–
NC(Cc1cc(I)c(Oc2cc(I)c(O)c(I)c2)c(I)c1)C(=O)O (configuration not stated) [Thyroxine (L)],92.7%,–
CN(C)CC/C=C1/c2ccccc2Sc2ccc(Cl)cc21,95.9%,–
CN(C)CC/C=C1/c2ccccc2Sc2ccc(Cl)cc21 [Chlorprothixene hydrochloride],61.4 ± 21%,–
CC(=O)Oc1ccccc1C(=O)O [Acetylsalicylic acid],90.5 ± 9%,–
CC(=O)Oc1ccccc1C(=O)O,84.5%,–
CC(=O)Oc1ccccc1C(=O)O [Acetylsalicylic Acid],103%,–
"O=C(O)[C@H]1NCCC[C@H]1C(=O)O (racemic) [(±)-cis-Piperidine-2,3-dicarboxylic acid]",99.8%,–
CC1=C(/C=C/C(C)=C/C=C/C(C)=C/C=C/C=C(C)/C=C/C=C(C)/C=C/C2=C(C)C(=O)[C@@H](O)CC2(C)C)C(C)(C)C[C@H](O)C1=O [Astaxanthin],93.3%,–
O=c1[nH]c(=O)n([C@@H]2O[C@H](CO)[C@@H](O)[C@H]2O)cc1Br [5-Bromouridine],–,85.7
N=C(N)NS(=O)(=O)c1ccc(N)cc1,91.7 ± 3.8%,–
N=C(N)NS(=O)(=O)c1ccc(N)cc1 [Sulfaguanidine],77.2%,–
NC[C@@H]1CC[C@@H](N)[C@@H](O[C@H]2[C@H](O)[C@@H](O[C@H]3O[C@H](CO)[C@@H](O)[C@H](N)[C@H]3O)[C@H](N)C[C@@H]2N)O1,83.5%,–
